Results are given in words; binding and its absence hold for the method and conditions named. Binding seen in cells or lysates may run through a third protein. Some entries that bind do so weakly or less than the wild type.

By UniProt entry, the sequences of proteins in these tests, tags left out. Where a name states a change or a piece, a line headed by the entry shows the natural chain unless it says otherwise. Residues count along the entry.
UniProt P01584: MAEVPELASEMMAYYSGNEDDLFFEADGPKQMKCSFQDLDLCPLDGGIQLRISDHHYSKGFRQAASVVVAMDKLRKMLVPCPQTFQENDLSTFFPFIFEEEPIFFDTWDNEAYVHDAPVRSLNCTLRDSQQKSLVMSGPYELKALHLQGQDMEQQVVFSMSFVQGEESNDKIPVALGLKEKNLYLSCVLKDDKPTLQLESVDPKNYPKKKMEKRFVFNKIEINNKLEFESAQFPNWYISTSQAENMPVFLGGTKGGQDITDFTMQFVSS
UniProt Q9NPH3, residues 21-359: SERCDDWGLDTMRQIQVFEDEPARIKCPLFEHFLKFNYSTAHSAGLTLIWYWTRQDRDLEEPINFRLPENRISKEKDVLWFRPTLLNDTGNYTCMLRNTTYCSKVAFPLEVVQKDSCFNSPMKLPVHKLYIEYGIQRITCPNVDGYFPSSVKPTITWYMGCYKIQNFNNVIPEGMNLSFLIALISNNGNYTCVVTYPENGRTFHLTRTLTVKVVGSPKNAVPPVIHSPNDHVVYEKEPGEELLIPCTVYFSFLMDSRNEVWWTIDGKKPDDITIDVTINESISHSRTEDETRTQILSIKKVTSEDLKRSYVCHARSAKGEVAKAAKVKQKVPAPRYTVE

The target of assay [1] is IL1β-IL1RI complex (Homo sapiens (Human)) (UniProt P01584). Nature of the assay: protein painting, LC-MS/MS (FIG. 16b).
Assay [2] shares this target. The experiment in a line: protein painting of the ternary complex, LC-MS/MS.
Assay [3] shares this target. Nature of the assay: pull-down with anti-6×His magnetic beads, western blot for IL1β (FIG. 16e).

For “Interleukin 1 receptor accessory protein (IL1RAcP, Novoprotein) (from UniProt Q9NPH3 21-359)”, the binding entry in assay [1] and in assay [2] was “binds” each time. As to “6×His-tagged IL1RAcP (from UniProt Q9NPH3 21-359) (receptor)”, the binding entry in assay [3] is on record as “binds”.

These data come from patent US10126304B2, “Binding domain mapping” (George Mason Research Foundation, Inc., priority 2013, dated 2018).
